From the supplement of paper PMC10849652
This is one part of the list.

Amino acid sequences for entries named in this document (tags omitted). A change or cut given only in a name is not applied to a line headed by its entry.
UniProt Q14562: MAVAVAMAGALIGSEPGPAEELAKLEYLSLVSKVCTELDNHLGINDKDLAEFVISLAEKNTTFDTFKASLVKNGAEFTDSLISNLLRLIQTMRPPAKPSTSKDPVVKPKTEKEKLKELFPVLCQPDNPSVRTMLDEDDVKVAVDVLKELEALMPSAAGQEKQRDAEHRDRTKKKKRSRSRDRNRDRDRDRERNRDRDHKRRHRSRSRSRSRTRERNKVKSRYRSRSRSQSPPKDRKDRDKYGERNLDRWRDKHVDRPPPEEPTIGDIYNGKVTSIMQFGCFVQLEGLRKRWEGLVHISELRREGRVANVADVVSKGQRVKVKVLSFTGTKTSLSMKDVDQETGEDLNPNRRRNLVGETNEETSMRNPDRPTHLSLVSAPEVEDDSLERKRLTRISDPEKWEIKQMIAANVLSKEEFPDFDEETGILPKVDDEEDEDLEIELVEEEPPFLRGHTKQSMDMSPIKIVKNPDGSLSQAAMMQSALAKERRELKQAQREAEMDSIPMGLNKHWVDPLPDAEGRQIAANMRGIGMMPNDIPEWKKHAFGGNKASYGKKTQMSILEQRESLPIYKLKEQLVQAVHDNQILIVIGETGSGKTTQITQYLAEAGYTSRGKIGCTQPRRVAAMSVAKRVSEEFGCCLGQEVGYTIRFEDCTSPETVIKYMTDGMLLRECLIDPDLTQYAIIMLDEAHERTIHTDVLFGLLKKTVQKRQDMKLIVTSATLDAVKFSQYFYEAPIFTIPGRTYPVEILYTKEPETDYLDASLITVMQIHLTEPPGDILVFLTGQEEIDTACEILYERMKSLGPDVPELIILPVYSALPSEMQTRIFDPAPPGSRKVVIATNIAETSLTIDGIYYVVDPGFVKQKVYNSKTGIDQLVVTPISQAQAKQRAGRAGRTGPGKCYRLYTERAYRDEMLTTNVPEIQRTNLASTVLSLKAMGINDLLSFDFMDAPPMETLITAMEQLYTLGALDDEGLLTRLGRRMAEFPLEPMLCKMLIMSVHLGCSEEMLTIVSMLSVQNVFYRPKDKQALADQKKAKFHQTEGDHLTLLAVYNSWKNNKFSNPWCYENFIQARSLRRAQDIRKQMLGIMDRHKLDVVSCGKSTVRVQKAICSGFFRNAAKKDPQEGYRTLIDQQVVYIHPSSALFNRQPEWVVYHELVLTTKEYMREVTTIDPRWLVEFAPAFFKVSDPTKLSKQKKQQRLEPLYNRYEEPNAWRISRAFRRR
UniProt Q9UHI6: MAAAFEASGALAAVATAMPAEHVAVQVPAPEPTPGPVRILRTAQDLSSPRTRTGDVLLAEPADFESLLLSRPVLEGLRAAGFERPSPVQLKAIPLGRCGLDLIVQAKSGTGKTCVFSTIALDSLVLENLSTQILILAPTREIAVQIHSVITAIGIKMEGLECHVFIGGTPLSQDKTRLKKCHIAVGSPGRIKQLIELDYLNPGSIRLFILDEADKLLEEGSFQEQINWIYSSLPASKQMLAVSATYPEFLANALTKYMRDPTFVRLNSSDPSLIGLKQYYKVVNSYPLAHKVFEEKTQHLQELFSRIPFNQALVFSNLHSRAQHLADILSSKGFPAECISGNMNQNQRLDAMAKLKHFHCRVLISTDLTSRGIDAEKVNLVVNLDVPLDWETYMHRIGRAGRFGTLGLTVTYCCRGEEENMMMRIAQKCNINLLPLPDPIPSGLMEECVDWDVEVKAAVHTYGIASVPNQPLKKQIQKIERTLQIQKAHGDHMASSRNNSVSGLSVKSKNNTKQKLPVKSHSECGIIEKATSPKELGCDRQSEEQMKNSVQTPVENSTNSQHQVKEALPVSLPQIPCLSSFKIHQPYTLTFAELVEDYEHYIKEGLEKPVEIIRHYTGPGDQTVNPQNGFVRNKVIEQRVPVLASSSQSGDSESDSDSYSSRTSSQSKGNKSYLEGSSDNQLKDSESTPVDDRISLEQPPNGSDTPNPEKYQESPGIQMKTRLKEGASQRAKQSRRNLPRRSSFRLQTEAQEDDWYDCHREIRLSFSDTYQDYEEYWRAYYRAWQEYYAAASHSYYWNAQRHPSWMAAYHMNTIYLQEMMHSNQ
UniProt Q9Y2H0: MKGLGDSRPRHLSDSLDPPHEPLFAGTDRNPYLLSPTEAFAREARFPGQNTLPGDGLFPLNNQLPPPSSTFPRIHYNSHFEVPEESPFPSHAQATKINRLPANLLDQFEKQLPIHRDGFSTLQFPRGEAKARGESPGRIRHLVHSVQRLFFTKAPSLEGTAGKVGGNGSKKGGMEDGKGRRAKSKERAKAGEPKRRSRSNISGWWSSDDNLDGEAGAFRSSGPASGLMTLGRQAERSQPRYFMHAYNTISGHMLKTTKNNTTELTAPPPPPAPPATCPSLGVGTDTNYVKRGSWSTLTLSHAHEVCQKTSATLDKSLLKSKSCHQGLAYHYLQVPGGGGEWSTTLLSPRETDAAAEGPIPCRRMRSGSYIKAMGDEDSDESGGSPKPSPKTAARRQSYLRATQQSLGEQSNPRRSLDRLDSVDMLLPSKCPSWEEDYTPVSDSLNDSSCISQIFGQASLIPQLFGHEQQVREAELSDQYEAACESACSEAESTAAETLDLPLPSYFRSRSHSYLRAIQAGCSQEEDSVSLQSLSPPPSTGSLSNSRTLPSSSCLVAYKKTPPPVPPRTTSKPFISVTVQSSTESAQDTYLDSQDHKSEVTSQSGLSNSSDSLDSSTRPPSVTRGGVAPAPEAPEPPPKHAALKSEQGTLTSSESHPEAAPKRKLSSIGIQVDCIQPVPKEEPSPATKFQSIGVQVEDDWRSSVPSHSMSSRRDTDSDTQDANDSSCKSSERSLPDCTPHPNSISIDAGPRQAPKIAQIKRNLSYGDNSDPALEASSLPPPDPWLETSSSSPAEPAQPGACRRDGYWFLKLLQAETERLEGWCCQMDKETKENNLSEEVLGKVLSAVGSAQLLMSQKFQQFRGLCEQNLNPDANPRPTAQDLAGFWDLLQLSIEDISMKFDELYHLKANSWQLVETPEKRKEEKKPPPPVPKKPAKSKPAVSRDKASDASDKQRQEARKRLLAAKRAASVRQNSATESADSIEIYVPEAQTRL
UniProt Q9UNQ2: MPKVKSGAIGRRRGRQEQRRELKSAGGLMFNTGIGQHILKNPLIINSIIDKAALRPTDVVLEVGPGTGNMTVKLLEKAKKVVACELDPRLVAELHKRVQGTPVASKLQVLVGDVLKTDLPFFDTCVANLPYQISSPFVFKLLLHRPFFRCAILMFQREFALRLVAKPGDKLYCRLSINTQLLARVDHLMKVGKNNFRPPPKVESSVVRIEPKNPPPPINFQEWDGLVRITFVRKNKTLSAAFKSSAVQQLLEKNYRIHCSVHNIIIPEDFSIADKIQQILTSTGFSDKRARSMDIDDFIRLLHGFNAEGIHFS
UniProt Q8WYQ5: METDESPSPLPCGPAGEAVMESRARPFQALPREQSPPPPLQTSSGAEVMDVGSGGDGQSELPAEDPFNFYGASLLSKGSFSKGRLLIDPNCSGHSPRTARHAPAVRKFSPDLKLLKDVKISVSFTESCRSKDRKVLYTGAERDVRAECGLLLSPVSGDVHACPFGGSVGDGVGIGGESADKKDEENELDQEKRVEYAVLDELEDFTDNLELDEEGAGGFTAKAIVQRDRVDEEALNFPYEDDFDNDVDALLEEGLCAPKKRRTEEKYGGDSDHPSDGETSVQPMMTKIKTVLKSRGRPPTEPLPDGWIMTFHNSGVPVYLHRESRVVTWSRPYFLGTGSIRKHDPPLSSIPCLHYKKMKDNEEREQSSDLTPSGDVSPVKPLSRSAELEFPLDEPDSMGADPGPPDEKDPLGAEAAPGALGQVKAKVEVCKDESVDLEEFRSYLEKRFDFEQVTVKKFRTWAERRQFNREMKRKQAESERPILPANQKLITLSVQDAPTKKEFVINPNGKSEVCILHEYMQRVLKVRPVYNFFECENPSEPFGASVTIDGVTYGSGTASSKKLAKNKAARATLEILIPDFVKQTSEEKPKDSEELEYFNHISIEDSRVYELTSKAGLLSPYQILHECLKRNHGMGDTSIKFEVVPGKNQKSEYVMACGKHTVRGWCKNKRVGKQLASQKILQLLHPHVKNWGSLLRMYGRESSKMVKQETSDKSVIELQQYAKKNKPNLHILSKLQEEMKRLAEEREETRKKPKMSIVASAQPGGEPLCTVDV
UniProt P10515, whole entry, looked up: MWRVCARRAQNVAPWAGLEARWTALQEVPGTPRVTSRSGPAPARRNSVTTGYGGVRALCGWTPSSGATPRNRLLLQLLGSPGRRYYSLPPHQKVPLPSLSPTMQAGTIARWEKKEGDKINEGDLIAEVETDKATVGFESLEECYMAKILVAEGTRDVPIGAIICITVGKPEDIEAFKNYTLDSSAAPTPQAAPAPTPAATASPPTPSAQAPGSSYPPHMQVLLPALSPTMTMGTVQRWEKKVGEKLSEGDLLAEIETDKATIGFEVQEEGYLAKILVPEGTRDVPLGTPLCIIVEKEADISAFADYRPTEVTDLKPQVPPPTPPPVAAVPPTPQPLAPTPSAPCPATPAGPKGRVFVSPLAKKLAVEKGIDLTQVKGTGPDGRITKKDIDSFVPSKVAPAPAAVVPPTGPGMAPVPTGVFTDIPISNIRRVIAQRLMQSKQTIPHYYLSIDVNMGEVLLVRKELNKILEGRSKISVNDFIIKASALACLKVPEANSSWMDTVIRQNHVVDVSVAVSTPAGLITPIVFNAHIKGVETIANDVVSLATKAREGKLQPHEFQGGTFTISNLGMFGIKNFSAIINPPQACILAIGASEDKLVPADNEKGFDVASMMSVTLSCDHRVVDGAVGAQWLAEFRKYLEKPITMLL
UniProt Q99766: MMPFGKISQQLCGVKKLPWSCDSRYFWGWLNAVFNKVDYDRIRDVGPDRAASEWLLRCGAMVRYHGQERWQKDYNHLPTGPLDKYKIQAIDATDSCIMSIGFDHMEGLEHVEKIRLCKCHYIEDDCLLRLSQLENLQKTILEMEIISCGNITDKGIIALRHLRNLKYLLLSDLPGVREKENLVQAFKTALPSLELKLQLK
UniProt Q5T1V6: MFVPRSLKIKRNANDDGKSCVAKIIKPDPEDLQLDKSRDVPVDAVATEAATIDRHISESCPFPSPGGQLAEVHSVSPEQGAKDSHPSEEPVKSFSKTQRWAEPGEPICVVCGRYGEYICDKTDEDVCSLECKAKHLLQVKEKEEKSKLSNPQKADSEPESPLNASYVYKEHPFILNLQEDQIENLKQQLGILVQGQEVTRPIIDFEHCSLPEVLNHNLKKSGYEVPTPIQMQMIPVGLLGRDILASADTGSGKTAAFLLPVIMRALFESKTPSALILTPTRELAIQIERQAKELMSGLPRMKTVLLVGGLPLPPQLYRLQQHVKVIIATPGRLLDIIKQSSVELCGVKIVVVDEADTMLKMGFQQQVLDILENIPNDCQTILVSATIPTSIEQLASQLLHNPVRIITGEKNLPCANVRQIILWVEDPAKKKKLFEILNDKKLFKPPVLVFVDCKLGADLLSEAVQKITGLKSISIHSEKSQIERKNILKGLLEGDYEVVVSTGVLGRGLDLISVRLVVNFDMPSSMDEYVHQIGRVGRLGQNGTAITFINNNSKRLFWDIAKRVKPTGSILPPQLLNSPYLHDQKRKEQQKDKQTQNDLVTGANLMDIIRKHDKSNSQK
UniProt Q13574: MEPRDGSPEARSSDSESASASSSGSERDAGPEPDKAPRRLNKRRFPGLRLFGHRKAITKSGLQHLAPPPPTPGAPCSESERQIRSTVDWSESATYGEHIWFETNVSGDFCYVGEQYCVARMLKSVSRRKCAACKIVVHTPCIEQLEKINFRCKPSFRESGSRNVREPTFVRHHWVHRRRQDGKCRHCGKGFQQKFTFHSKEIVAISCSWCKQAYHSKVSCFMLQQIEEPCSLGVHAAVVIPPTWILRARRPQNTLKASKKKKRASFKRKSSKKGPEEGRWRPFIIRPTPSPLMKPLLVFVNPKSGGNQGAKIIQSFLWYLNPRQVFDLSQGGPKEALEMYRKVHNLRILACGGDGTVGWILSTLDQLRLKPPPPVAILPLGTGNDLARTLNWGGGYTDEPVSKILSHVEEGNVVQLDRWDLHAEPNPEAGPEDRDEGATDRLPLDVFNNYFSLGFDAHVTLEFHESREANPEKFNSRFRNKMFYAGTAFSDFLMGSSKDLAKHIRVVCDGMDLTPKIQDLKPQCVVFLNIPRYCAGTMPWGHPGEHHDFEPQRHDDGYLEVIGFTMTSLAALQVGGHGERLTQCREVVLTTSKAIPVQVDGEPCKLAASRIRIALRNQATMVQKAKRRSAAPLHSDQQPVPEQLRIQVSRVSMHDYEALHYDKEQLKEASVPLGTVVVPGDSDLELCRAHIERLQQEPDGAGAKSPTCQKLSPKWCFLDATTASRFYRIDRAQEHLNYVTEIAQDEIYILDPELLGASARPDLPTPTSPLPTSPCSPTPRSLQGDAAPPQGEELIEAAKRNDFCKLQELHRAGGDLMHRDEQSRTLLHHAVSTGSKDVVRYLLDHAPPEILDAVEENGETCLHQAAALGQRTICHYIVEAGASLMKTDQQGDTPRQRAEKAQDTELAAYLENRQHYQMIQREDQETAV

Experiments:
Test in all cases: log2 fold change, soluble protein after heating vs DMSO (PISA); higher = thermal stabilisation; K562 cells, 10 uM, 30 min; active = over 0.2 and 3.5 SD of the protein, either way, in both replicates (recomputed)
[1] = compound: CS(=O)(=O)c1ccc(-c2cnc(N)c(C(=O)Nc3ccccc3)n2)cc1
In short: (§1)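 K562 cells at 2×10^6 cells/mL were given 10 μM compound for 30 min. Aliquots then went through 3 min of heating across 48°C-58°C, were pooled, and were extracted in PBS with 0.5% NP-40 at 4°C, and the supernatant after 21,000xg for 90 min was quantified by TMTpro 16plex LC-MS/MS with channel sums equalised. Thermal stability relative to control samples, from duplicates, is given as log2 fold change.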

crizotinib = compound: C[C@@H](Oc1cc(-c2cnn(C3CCNCC3)c2)cnc1N)c1c(Cl)ccc(F)c1Cl [crizotinib]
In short: as §1

[2] = compound: C[C@@H]1COCCN1C2=NC(=NC(=C2)C3(CC3)S(=O)(=O)C)C4=C5C=CNC5=CC=C4
In short: as §1

[3] = compound: C[C@H](C1=CC=C(C=C1)C(=O)NC2=C3C=CNC3=NC=C2)N
In short: as §1

duvelisib = compound: C[C@H](Nc1ncnc2nc[nH]c12)c1cc2cccc(Cl)c2c(=O)n1-c1ccccc1 [duvelisib]
In short: as §1

gandotinib = compound: Cc1cc(Nc2cc(CN3CCOCC3)c3nc(C)c(Cc4ccc(Cl)cc4F)n3n2)n[nH]1 [gandotinib]
In short: as §1

tozasertib = compound: Cc1cc(Nc2cc(N3CCN(C)CC3)nc(Sc3ccc(NC(=O)C4CC4)cc3)n2)n[nH]1 [tozasertib]
In short: as §1

[4] = compound: Cc1cc(SCc2sc(-c3ccc(C(F)(F)F)cc3)nc2C)ccc1OCC(=O)O
In short: as §1

doramapimod = compound: Cc1ccc(-n2nc(C(C)(C)C)cc2NC(=O)Nc2ccc(OCCN3CCOCC3)c3ccccc23)cc1 [doramapimod]
In short: as §1

ispinesib = compound: Cc1ccc(C(=O)N(CCCN)[C@@H](c2nc3cc(Cl)ccc3c(=O)n2Cc2ccccc2)C(C)C)cc1 [ispinesib]
In short: as §1

bafetinib = compound: Cc1ccc(NC(=O)c2ccc(CN3CC[C@H](N(C)C)C3)c(C(F)(F)F)c2)cc1Nc1nccc(-c2cncnc2)n1 [bafetinib]
In short: as §1

[5] = compound: Cc1cccc(CC(=O)N2CCc3c2ccc(-c2cn(C)c4ncnc(N)c24)c3F)n1
In short: as §1

nilotinib = compound: Cc1cn(-c2cc(NC(=O)c3ccc(C)c(Nc4nccc(-c5cccnc5)n4)c3)cc(C(F)(F)F)c2)cn1 [nilotinib]
In short: as §1

[6] = compound: Cc1nc(Nc2n[nH]c3c2CN(C(=O)N[C@H](CN(C)C)c2ccccc2)C3(C)C)c2sccc2n1
In short: as §1

dasatinib = compound: Cc1nc(Nc2ncc(C(=O)Nc3c(C)cccc3Cl)s2)cc(N2CCN(CCO)CC2)n1 [dasatinib]
In short: as §1

[7] = compound: Cc1ncc(-c2ccnc(Nc3ccc(S(C)(=O)=O)cc3)n2)n1C(C)C
In short: as §1

[8] = compound: Cn1cc(-c2ccc3c(c2)CCN3C(=O)Cc2cccc(C(F)(F)F)c2)c2c(N)ncnc21
In short: as §1

[9] = compound: Cn1cc(-c2ccc3nnc(C(F)(F)c4ccc5ncccc5c4)n3n2)cn1
In short: as §1

tipifarnib = compound: Cn1cncc1[C@@](N)(c1ccc(Cl)cc1)c1ccc2c(c1)c(-c1cccc(Cl)c1)cc(=O)n2C [tipifarnib]
In short: as §1

mubritinib = compound: FC(F)(F)c1ccc(/C=C/c2nc(COc3ccc(CCCCn4ccnn4)cc3)co2)cc1 [mubritinib]
In short: as §1

Measured: log2 fold change

DHX8 (UniProt Q14562)
inactive: [1] 0.015 | crizotinib 0.004 | [2] 0.041 | [3] 0.139 | duvelisib 0.135 | gandotinib -0.135 | tozasertib -0.004 | [4] -0.049 | doramapimod 0.033 | ispinesib 0 | bafetinib -0.034 | [5] -0.229 | nilotinib -0.054 | [6] 0.07 | dasatinib 0.028 | [7] -0.055 | [8] -0.008 | [9] 0.049 | tipifarnib 0.071 | mubritinib 0.009

DDX39B isoform 2 (UniProt Q13838)
inactive: [1] -0.008 | crizotinib 0.083 | [2] -0.006 | [3] 0.054 | duvelisib -0.009 | gandotinib -0.024 | tozasertib -0.014 | [4] 0.002 | doramapimod 0.018 | ispinesib 0.083 | bafetinib 0.036 | [5] -0.055 | nilotinib -0.021 | [6] 0.046 | dasatinib 0.038 | [7] 0.032 | [8] -0.05 | [9] -0.065 | tipifarnib 0.025 | mubritinib -0.096

DDX20 (UniProt Q9UHI6)
inactive: [1] 0.02 | crizotinib -0.167 | [2] -0.259 | [3] 0.517 | duvelisib 0.009 | gandotinib 0.063 | tozasertib 0 | [4] 0.007 | doramapimod 0.106 | ispinesib -0.174 | bafetinib 0.193 | [5] 0.063 | nilotinib -0.132 | [6] -0.26 | dasatinib -0.056 | [7] 0.056 | [8] -0.401 | [9] -0.05 | tipifarnib -0.038 | mubritinib -0.107

DLG2 isoform 2 (UniProt Q15700)
inactive: [1] 0.003 | crizotinib -0.13 | [2] 0.012 | [3] -0.06 | duvelisib 0.054 | gandotinib 0.011 | tozasertib 0.074 | [4] -0.065 | doramapimod -0.055 | ispinesib -0.033 | bafetinib -0.125 | [5] 0.136 | nilotinib 0.034 | [6] -0.015 | dasatinib 0.001 | [7] -0.022 | [8] -0.017 | [9] -0.116 | tipifarnib 0.009 | mubritinib -0.035

DENND6A (UniProt Q8IWF6)
inactive: [1] -0.057 | crizotinib -0.044 | [2] 0.109 | [3] 0.009 | duvelisib -0.109 | gandotinib 0.076 | tozasertib 0.073 | [4] 0.033 | doramapimod 0.018 | ispinesib -0.178 | bafetinib -0.068 | [5] -0.106 | nilotinib 0.041 | [6] -0.026 | dasatinib -0.062 | [7] 0.069 | [8] 0.014 | [9] -0.04 | tipifarnib 0.073 | mubritinib 0.023

Looked up one by one from the list above (2):
DDX20 (UniProt Q9UHI6)
inactive: [1] 0.02 | crizotinib -0.167 | [2] -0.259 | [3] 0.517 | duvelisib 0.009 | gandotinib 0.063 | tozasertib 0 | [4] 0.007 | doramapimod 0.106 | ispinesib -0.174 | bafetinib 0.193 | [5] 0.063 | nilotinib -0.132 | [6] -0.26 | dasatinib -0.056 | [7] 0.056 | [8] -0.401 | [9] -0.05 | tipifarnib -0.038 | mubritinib -0.107

DENND6A (UniProt Q8IWF6)
inactive: [1] -0.057 | crizotinib -0.044 | [2] 0.109 | [3] 0.009 | duvelisib -0.109 | gandotinib 0.076 | tozasertib 0.073 | [4] 0.033 | doramapimod 0.018 | ispinesib -0.178 | bafetinib -0.068 | [5] -0.106 | nilotinib 0.041 | [6] -0.026 | dasatinib -0.062 | [7] 0.069 | [8] 0.014 | [9] -0.04 | tipifarnib 0.073 | mubritinib 0.023

Next entries.

DLGAP4 (UniProt Q9Y2H0)
inactive: [1] -0.017 | crizotinib 0.02 | [2] 0.031 | [3] 0.02 | duvelisib -0.037 | gandotinib 0.002 | tozasertib 0 | [4] 0.056 | doramapimod -0.009 | ispinesib 0.05 | bafetinib -0.044 | [5] -0.016 | nilotinib 0.027 | [6] -0.054 | dasatinib -0.038 | [7] -0.014 | [8] -0.023 | [9] -0.04 | tipifarnib 0.027 | mubritinib 0.047

DDX56 (UniProt Q9NY93)
inactive: [1] 0.05 | crizotinib -0.255 | [2] -0.036 | [3] 0.365 | duvelisib -0.024 | gandotinib 0.03 | tozasertib 0.027 | [4] 0.135 | doramapimod 0.095 | ispinesib -0.04 | bafetinib 0.432 | [5] 0.13 | nilotinib 0.288 | [6] 0 | dasatinib -0.011 | [7] 0.039 | [8] -0.213 | [9] -0.147 | tipifarnib 0.096 | mubritinib 0.384

DIMT1 (UniProt Q9UNQ2)
inactive: [1] -0.073 | crizotinib -0.006 | [2] -0.352 | [3] 0.312 | duvelisib -0.143 | gandotinib 0.183 | tozasertib 0.021 | [4] -0.01 | doramapimod 0.181 | ispinesib -0.146 | bafetinib 0.193 | [5] -0.001 | nilotinib -0.031 | [6] 0.184 | dasatinib 0.067 | [7] 0.016 | [8] -0.192 | [9] -0.144 | tipifarnib 0.076 | mubritinib -0.125

DGCR8 (UniProt Q8WYQ5)
inactive: [1] -0.071 | crizotinib -0.153 | [2] -0.384 | [3] 0.237 | duvelisib -0.098 | gandotinib 0.167 | tozasertib 0.032 | [4] 0.069 | doramapimod 0.13 | ispinesib 0.001 | bafetinib 0.177 | [5] -0.042 | nilotinib -0.014 | [6] -0.031 | dasatinib 0.13 | [7] 0.041 | [8] -0.247 | [9] -0.055 | tipifarnib 0.083 | mubritinib -0.134

DLAT (UniProt P10515)
inactive: [1] 0.054 | crizotinib 0.02 | [2] -0.335 | [3] 0.267 | duvelisib -0.18 | gandotinib 0.088 | tozasertib 0.141 | [4] 0.119 | doramapimod 0.146 | ispinesib -0.118 | bafetinib 0.232 | [5] 0.026 | nilotinib -0.037 | [6] 0.151 | dasatinib 0.054 | [7] -0.064 | [8] -0.257 | [9] -0.06 | tipifarnib 0.227 | mubritinib -0.261

DMAC2L (UniProt Q99766)
inactive: [1] 0.074 | crizotinib 0.154 | [2] 0.037 | [3] -0.035 | duvelisib 0.093 | gandotinib -0.065 | tozasertib -0.043 | [4] -0.046 | doramapimod -0.003 | ispinesib 0.151 | bafetinib -0.003 | [5] 0 | nilotinib -0.045 | [6] 0.002 | dasatinib -0.025 | [7] 0.044 | [8] 0.063 | [9] 0.088 | tipifarnib 0.031 | mubritinib 0.028

DDA1 (UniProt Q9BW61)
inactive: [1] 0.016 | crizotinib 0.121 | [2] 0.081 | [3] 0.022 | duvelisib 0.026 | gandotinib -0.055 | tozasertib -0.018 | [4] 0.007 | doramapimod 0.042 | ispinesib -0.014 | bafetinib -0.065 | [5] 0.003 | nilotinib 0.043 | [6] -0.033 | dasatinib -0.028 | [7] -0.06 | [8] -0.027 | [9] 0.029 | tipifarnib 0.045 | mubritinib 0.003

DDHD2 (UniProt O94830)
inactive: [1] -0.009 | crizotinib -0.189 | [2] 0.027 | [3] -0.009 | duvelisib 0.01 | gandotinib -0.039 | tozasertib -0.087 | [4] -0.009 | doramapimod -0.011 | ispinesib -0.13 | bafetinib -0.051 | [5] -0.02 | nilotinib 0.041 | [6] -0.017 | dasatinib -0.085 | [7] -0.021 | [8] 0.116 | [9] -0.048 | tipifarnib -0.078 | mubritinib 0.072

DDX59 (UniProt Q5T1V6)
inactive: [1] 0.057 | crizotinib 0.043 | [2] 0.008 | [3] -0.031 | duvelisib 0.126 | gandotinib 0.009 | tozasertib 0.017 | [4] 0.06 | doramapimod 0.031 | ispinesib 0.008 | bafetinib -0.034 | [5] -0.099 | nilotinib 0.04 | [6] -0.044 | dasatinib -0.112 | [7] 0.017 | [8] -0.037 | [9] 0 | tipifarnib -0.059 | mubritinib 0.144

DGKZ (UniProt Q13574)
inactive: [1] 0.04 | crizotinib -0.032 | [2] -0.003 | [3] 0.045 | duvelisib -0.028 | gandotinib -0.024 | tozasertib -0.018 | [4] 0.018 | doramapimod 0.049 | ispinesib -0.019 | bafetinib -0.028 | [5] 0.018 | nilotinib -0.035 | [6] -0.064 | dasatinib -0.008 | [7] 0.108 | [8] -0.048 | [9] -0.101 | tipifarnib 0.091 | mubritinib -0.028

DERL1 (UniProt Q9BUN8)
inactive: [1] -0.01 | crizotinib 0.043 | [2] -0.12 | [3] -0.046 | duvelisib 0.041 | gandotinib 0.037 | tozasertib -0.045 | [4] -0.11 | doramapimod -0.066 | ispinesib 0.003 | bafetinib -0.008 | [5] 0.132 | nilotinib 0.001 | [6] -0.132 | dasatinib 0.006 | [7] -0.013 | [8] 0.027 | [9] 0.092 | tipifarnib 0.096 | mubritinib 0.107
